# PubChem BioAssay AID1159584 | Peter MacCallum Cancer Centre | 2016
# Purpose: 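Knock-downs that harm CDH1-null cells more than parental MCF10A cells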 (primary screen)
# Cell system: human MCF10A breast epithelial cells, parental and CDH1-null
# Knock-down reagent: siRNA against human genes
# Measured: 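ATP luminescence (CellTiter-Glo) viability per line relative to mean mock wells over all plates, and the ratio of CDH1-null to parental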
# Direction: CDH1-null / parental viability ratio: higher = CDH1-null cells survive relatively better than parental; CDH1-null viability vs mock: higher = more viable CDH1-null cells; parental viability vs mock: higher = more viable parental cells
# The deposit covers about 18,000 reagents; this is a random part of them. Not stated in the record: the amount of reagent, the time to read-out.
gene,CDH1-null / parental viability ratio,CDH1-null viability vs mock (fraction of mock),parental viability vs mock (fraction of mock)
CEP250,1.24,0.47,0.38
KRAS,1,0.5,0.5
RFESD,1.07,0.78,0.73
CHRNG,1.1,0.86,0.78
EGLN1,0.81,0.71,0.88
NTMT1,1.01,0.68,0.67
EMC6,1.19,0.63,0.53
SLC25A18,0.89,0.87,0.98
COMMD1,1.41,0.86,0.61
SLC52A2,0.88,0.76,0.86
ZNF678,1.07,1.13,1.06
ZNF548,0.69,0.54,0.78
SLC30A10,1.09,0.76,0.7
TMEM232,1.08,0.94,0.87
HTR3C,1.15,0.99,0.86
R3HDML,1.28,0.73,0.57
TAS2R46,0.83,0.53,0.64
ARHGEF17,0.89,0.72,0.81
TGFBR3,1.02,0.92,0.9
EPS15,1.14,0.66,0.58
GNA15,1.29,0.62,0.48
SAA2,1,0.4,0.4
PPBP,0.85,0.84,0.99
CCL1,1.1,0.33,0.3
RNF32,1,0.98,0.98
KLF11,0.96,1,1.04
BEND7,1,0.6,0.6
HINT2,0.91,0.61,0.67
GOLPH3L,1,0.4,0.4
YEATS4,0.78,0.78,1
MYT1L,1.06,0.95,0.9
ASB6,1.19,0.76,0.64
PMS2P3,1.2,0.78,0.65
TSPYL5,1.15,0.9,0.78
SDC1,1.58,0.6,0.38
KDM5A,0.96,0.65,0.68
MAN2B2,1.04,1.02,0.98
ZNF85,0.96,0.46,0.48
SLC27A1,1.07,0.62,0.58
ALX3,1.01,0.98,0.97
LINC01587,1.05,0.98,0.93
SPC24,0.97,0.68,0.7
CDKL4,0.91,0.92,1.01
PCDHA7,1.24,0.89,0.72
NETO2,1.05,0.9,0.86
DDX18,0.84,0.48,0.57
STX8,1.03,0.36,0.35
RBFOX1,1.3,1.25,0.96
ADO,0.97,0.6,0.62
LHPP,1.26,0.83,0.66
MRPS5,1.12,1.02,0.91
TPX2,0.75,0.24,0.32
DERL1,1,0.76,0.76
LCAT,1.11,0.91,0.82
COA4,1.03,0.72,0.7
SHKBP1,0.74,0.7,0.94
C5orf15,1.19,0.57,0.48
STEAP3,1.09,1,0.92
RORC,1.05,1.08,1.03
CDC14A,1.39,1,0.72
PNN,1.11,1.02,0.92
B3GNT4,0.93,0.84,0.9
MYOZ3,1.02,0.86,0.84
SERPINB9,1.15,0.99,0.86
SLC7A2,0.96,0.9,0.94
FAM221A,0.89,0.73,0.82
H4C12,0.89,0.64,0.72
STPG3,1.02,0.52,0.51
EFNB1,0.92,0.55,0.6
OTOG,0.99,0.77,0.78
TMIGD2,1.33,1.36,1.02
AGT,0.96,0.98,1.02
SYCE1,0.9,0.73,0.81
MYO1D,0.8,0.43,0.54
NUF2,1.48,0.46,0.31
PANX1,1.16,1.16,1
LRRC4B,1.33,1.01,0.76
PCDHA8,0.87,0.9,1.03
ZDHHC1,1.7,0.68,0.4
POMP,0.95,0.61,0.64
ATG12,1.12,1.16,1.04
ELP6,0.86,0.74,0.86
XKRYP7,0.62,0.38,0.61
GOLGA5,1.09,1.11,1.02
PLEKHA3,1.13,1.08,0.96
ZCCHC8,1.06,1.23,1.16
TACO1,1.12,0.86,0.77

A run of entries of the results above, for reference:
gene,CDH1-null / parental viability ratio,CDH1-null viability vs mock (fraction of mock),parental viability vs mock (fraction of mock)
HINT2,0.91,0.61,0.67
GOLPH3L,1,0.4,0.4
YEATS4,0.78,0.78,1
MYT1L,1.06,0.95,0.9
ASB6,1.19,0.76,0.64
PMS2P3,1.2,0.78,0.65
TSPYL5,1.15,0.9,0.78
SDC1,1.58,0.6,0.38
KDM5A,0.96,0.65,0.68
